Data from publication PMC8598065.
These are yes or no findings as the source states them, for the method shown. Some binding calls cover weakened binding; strength is not graded here.

Target: T1, MAGEH1 (NP_054780) spotted on the HuProt human protein microarray (human) (UniProt Q9H213)
T1 sequence: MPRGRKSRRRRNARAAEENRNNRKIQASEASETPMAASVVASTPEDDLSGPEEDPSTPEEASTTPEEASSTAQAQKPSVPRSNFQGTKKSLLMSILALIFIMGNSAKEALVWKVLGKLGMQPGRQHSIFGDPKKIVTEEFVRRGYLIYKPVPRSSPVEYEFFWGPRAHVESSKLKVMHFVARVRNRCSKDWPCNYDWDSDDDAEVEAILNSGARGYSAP
Experiment: peptide or protein array; HuProt human protein microarray (over 19,000 full-length recombinant human proteins); blocked with 5% BSA in PBS with 0.05% tween 20; 3 ug GADD45G protein for 12 hours at 4°C; detected with biotinylated anti-GADD45G antibody and streptavidin Alexa-Fluor 532 nm; both purified

binding: binds
B1: GADD45G protein (Abcam) (protein, UniProt O95257 1-159)
chain: MTLEEVRGQDTVPESTARMQGAGKALHELLLSAQRQGCLTAGVYESAKVLNVDPDNVTFCVLAAGEEDEGDIALQIHFTLIQAFCCENDIDIVRVGDVQRLAAIVGAGEEAGAPGDLHCILISNPNEDAWKDPALEKLSLFCEESRSVNDWVPSITLPE
